The other results are listed elsewhere or left out. Shown are side measurements of this screen, not its main read-out; they come without a call. The list favours compounds with an active or inconclusive main result. Potencies come from curve fits of mixed quality, noted in brackets.
Assay: qHTS Assay for Lipid Storage Modulators in Drosophila S3 Cells;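 on cell number change: cells counted by Cell Tracker Red CMTPX staining in the red channel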
Settings: BODIPY lipid droplet fluorescence, 18-24 h; for cell number change: measured here: cell count max response, cells fed with added oleic acid
In short: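 Drosophila S3 cells loaded with oleic acid (400 uM, as added) and compounds at several concentrations; lipid droplets imaged by 488-nm laser-scanning cytometry, 500–530 nm intensity and object ratio to cell channel. Percent activity normalized to 20 uM Triacsin C.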

[1] = measured here: lipid fluorescence (Fed channel) AC50, cells fed with added oleic acid
[2] = measured here: cell number channel AC50, cells fed with added oleic acid

Compound	cell number change [%]	AC50 [1]	AC50 [2]
COc1cc(CNCCc2ccccc2)ccc1OCC(N)=O	-15.4	1.3 µM [falling, partial curve]	–
CN(C)c1ccc(C(CNS(=O)(=O)c2cccc([N+](=O)[O-])c2)N2CCOCC2)cc1 (stereo unspecified)	1.58	18.4 µM [rising, partial curve]	–
COc1ccccc1NC(=O)C(C)OC(=O)CSCC(=O)Nc1ccc(C)cc1C (stereo unspecified)	26.2	–	–
Cc1ccc2nccc(C(=O)N3CCCC(N4CCN(c5ccc(F)cc5)CC4)C3)c2c1 (stereo unspecified)	30	8.2 µM [rising, partial curve]	3.26 µM [rising, full curve, poor fit]
O=C(CS(=O)(=O)c1c[nH]c2ccccc12)N1CCCc2ccccc21	13.5	0.651 µM [falling, single point]	–
CCOC(=O)N1CCN(C(=O)c2nn(-c3ccc(C)cc3)c(=O)c3c2c2ccccc2n3C)CC1	-9.4	3.26 µM [falling, single point]	–
O=C(O)c1ccccc1-c1ccc(/C=c2\sc3nc4cc(Br)cnc4n3c2=O)o1	-89.6	–	20.6 µM [falling, single point]
CCN(C(=O)Cn1ccc(C(F)(F)F)n1)c1c(N)n(Cc2ccccc2)c(=O)[nH]c1=O	8.63	0.206 µM [falling, full curve, poor fit]	–
CCOc1cc(C(=O)CCC(=O)OCC(=O)Nc2ccc(C)c(S(=O)(=O)N(C)C)c2)ccc1O	49	–	0.92 µM [rising, full curve, poor fit]
CCC1=NN2C(=N)/C(=C\c3cccn3-c3c(C)cccc3C)C(=O)N=C2S1	-2.7	2.91 µM [falling, full curve, poor fit]	–
N#Cc1ccccc1NC(=O)CNc1cc(S(=O)(=O)N2CCOCC2)ccc1NCC1CCCO1 (stereo unspecified)	89.8	–	29.1 µM [rising, single point]
CC1CCCN(C(=O)C2CCN(S(=O)(=O)c3cccc4nonc34)CC2)C1 (stereo unspecified)	-17.5	29.1 µM [rising, single point]	–
CCCCC1(O)CC(C(F)(F)F)=NN1C(=O)COc1ccccc1 (stereo unspecified)	-45	29.1 µM [falling, single point]	16.4 µM [falling, single point]
Cc1ncc([N+](=O)[O-])n1CC(=O)NC1CCCCC1	-5.4	–	6.51 µM [falling, single point]
CC(=O)Nc1ccc(S(=O)(=O)N2CCCC3CCCCC32)cc1 (stereo unspecified)	38.1	18.4 µM [rising, single point]	0.92 µM [rising, full curve, poor fit]
COc1ccc(S(=O)(=O)N(C)CC(=O)O)c2ccccc12	-4.5	0.103 µM [falling, full curve, poor fit]	–
COc1ccc(CCNC(=O)C23CCC(C)(C(=O)C2Br)C3(C)C)cc1OC (stereo unspecified)	-1.28	7.31 µM [falling, partial curve, poor fit]	–
CN(Cc1ccccc1Cl)C(=O)CCNC(=O)c1ccco1	750	–	1.84 µM [rising, full curve]
Cc1onc(-c2ccccc2)c1C(=O)OCC(=O)NC(C)c1ccc(Cl)cc1 (stereo unspecified)	19.6	0.651 µM [rising, single point]	–
C=C(C)CN(CC)c1nc(N)c(C#N)c(CC#N)c1C#N	0.488	1.3 µM [falling, partial curve]	–

Compound	cell number change [%]	AC50 [1]	AC50 [2]
Cc1ccc(S(=O)(=O)NCc2ccc(C(=O)N3CCc4ccccc4C3)cc2)cc1	-1.09	0.731 µM [rising, full curve, poor fit]	–
C=CCn1c2ccccc2c(=O)c2cc(C#Cc3ccccn3)ccc21	12.2	0.00651 µM [falling, full curve, poor fit]	–
COC(=O)C1=C(C)Nc2[nH]c(=S)[nH]c(=O)c2C1c1ccc(O)cc1 (stereo unspecified)	12.9	6.51 µM [falling, single point]	–
COC(=O)c1ccc(COC(=O)CCNS(=O)(=O)c2ccc(C)c(C)c2)cc1	-13.5	–	–
CC(C)c1ccc(/C=N/n2c(-c3ccccc3)n[nH]c2=S)cc1	-37.6	29.1 µM [falling, single point]	20.6 µM [falling, single point]
CCC(C)NC(=O)CSc1n[nH]c(=O)n1CCc1ccccc1 (stereo unspecified)	4.35	–	–
COc1ccc(-c2cc(C(F)(F)F)n3nc(C(=O)N4CCOCC4)c(Cl)c3n2)cc1	2.78	2.06 µM [rising, partial curve]	–
Cc1cc(C)cc(NC(=O)NN2C(C)CCCC2C)c1 (stereo unspecified)	-33.7	29.1 µM [falling, single point]	29.1 µM [falling, single point]
Cc1ccc(N2CCN(C(=O)NC3CCCCC3)CC2)c(C)c1	-13.2	25.9 µM [falling, single point]	–
CC(C)(C#CCN1CCCCC1)OCCOC(c1ccccc1)c1ccccc1	-15.4	6.51 µM [rising, partial curve]	6.51 µM [rising, partial curve]
CCN1CCc2c(OCC(=O)Nc3ccccc3)cccc2C1=O	-11.4	–	–
COc1ccc(N2C3=[N+](CCCC3)CC2(C)O)cc1 (stereo unspecified)	-1.8	23.1 µM [falling, partial curve]	–
COc1ccc2nc3c(c(-c4ccccc4)c2c1)CCC3	15.6	2.06 µM [rising, partial curve]	–
O=C(N/N=C\c1ccccc1OCc1ccccc1)c1ccco1	-49.6	–	8.2 µM [falling, partial curve]
Cc1cc(OCCCCOc2ccc(C#N)cc2)ccc1[N+](=O)[O-]	-15	0.731 µM [rising, partial curve, poor fit]	–
CCOc1ccc(C(=O)NCc2cccnc2)cc1[N+](=O)[O-]	9.5	31.6 µM [rising, single point]	–
CN(C)CC(=O)N1c2ccccc2Sc2ccc(Cl)cc21	22.8	0.0411 µM [rising, full curve, poor fit]	–
CCN1CCN(C(c2cccs2)C(C)NS(=O)(=O)c2ccc(C)cc2)CC1 (stereo unspecified)	12.5	0.517 µM [falling, single point]	–
COc1ccccc1NC(=O)c1ccccc1SC	–	2.91 µM [rising, partial curve]	2.91 µM [rising, partial curve]
CC(=O)Cn1ncc(N2CCOCC2)c(Cl)c1=O	12.6	5.8 µM [rising, single point]	–

Compound	cell number change [%]	AC50 [1]	AC50 [2]
NC(=O)C(=O)NN=C1CCC(c2ccccc2)CC1 (stereo unspecified)	5.57	16.4 µM [falling, single point]	–
Cc1cccc(N2CCN(C(=S)NCCc3ccccc3)CC2)c1C	43	4.61 µM [rising, partial curve]	18.4 µM [rising, partial curve]
Cc1cc(C(=O)N2CC(C)CC(C)C2)c(C)o1 (stereo unspecified)	-17.4	6.51 µM [falling, single point]	–
CCCC1=C(C(=O)OCC)C(c2sccc2C)n2ncnc2N1 (stereo unspecified)	13.2	2.31 µM [falling, single point]	–
CCN(CC)CCCNC(=S)N1CCC(c2nc3ccccc3[nH]2)CC1	15.8	14.6 µM [rising, partial curve]	–
COC(=O)c1sccc1NS(=O)(=O)c1ccc(F)cc1F	16	11.6 µM [rising, partial curve, poor fit]	–
O=[N+]([O-])c1cccnc1N1CCCCC1	12.1	8.2 µM [rising, partial curve]	–
C=CCn1c(SCC(=O)c2ccc(OC)cc2)nnc1-c1ccc2c(c1)OCO2	6.71	1.16 µM [rising, partial curve]	–
Cc1ncn(C23CC4CC(CC(O)(C4)C2)C3)n1	-2.33	0.0184 µM [falling, full curve, poor fit]	–
O=C(/C=C1\SC(=O)N(CC(=O)Nc2ccc(F)cc2)C1=O)Nc1ccc(Cl)cc1	-1	0.231 µM [falling, full curve, poor fit]	0.00411 µM [rising, full curve, poor fit]
Nn1c(Cc2cccc3ccccc23)nnc1SCC(=O)NCC1CCCO1 (stereo unspecified)	3.82	29.1 µM [falling, single point]	–
Cc1cccc(N2C(=O)CC(c3ccc(F)cc3)C3=C2COC3=O)c1 (stereo unspecified)	–	–	0.082 µM [falling, full curve, poor fit]
Cn1nnnc1SCC(=O)N(C1CCCCC1)C1CCCCC1	-19.7	29.1 µM [rising, single point]	–
O=C(c1cccc(F)c1)N1CCc2ccccc2C1	-5.39	0.184 µM [falling, full curve, poor fit]	–
O=C(Nc1ccccc1C(F)(F)F)C1CCN(C(=O)Cc2ccccc2)CC1	37.5	0.58 µM [rising, full curve, poor fit]	–
O=C(CSc1nc2c(c(=O)n1-c1ccc(Cl)cc1)SCC2)NCC1CCCO1 (stereo unspecified)	-20.1	23.1 µM [rising, single point]	–
CCn1cc(C(=O)NCc2ccc3c(c2)OCO3)c(=O)c2cc(F)c(N3CCN(C)CC3)cc21	1.39	–	0.366 µM [falling, full curve]
COc1cc(C=O)cc(OC)c1OS(=O)(=O)c1ccc(NC(C)=O)cc1	5.67	–	6.51 µM [rising, single point]
CCc1ccc2nc3sc(C(=O)N4CCc5ccccc54)c(N)c3cc2c1	14.4	2.06 µM [rising, full curve]	–

Of the compounds above, these contain a nitro group on carbon.
Compound	cell number change [%]	AC50 [1]	AC50 [2]
CN(C)c1ccc(C(CNS(=O)(=O)c2cccc([N+](=O)[O-])c2)N2CCOCC2)cc1 (stereo unspecified)	1.58	18.4 µM [rising, partial curve]	–
Cc1ncc([N+](=O)[O-])n1CC(=O)NC1CCCCC1	-5.4	–	6.51 µM [falling, single point]
Cc1cc(OCCCCOc2ccc(C#N)cc2)ccc1[N+](=O)[O-]	-15	0.731 µM [rising, partial curve, poor fit]	–
CCOc1ccc(C(=O)NCc2cccnc2)cc1[N+](=O)[O-]	9.5	31.6 µM [rising, single point]	–
O=[N+]([O-])c1cccnc1N1CCCCC1	12.1	8.2 µM [rising, partial curve]	–

From PubChem BioAssay AID2685 (National Center for Advancing Translational Sciences (NCATS), 2010)
